No constants are given. Whether binding was seen depends on the method and setting. In cells and extracts the contact can be indirect. Binding calls can cover weak binding; strength is not graded here.
Target: SPECC1L-ΔCCD2 (mouse (endogenous in embryonic tissue)) (UniProt Q2KN98)
Experiment: co-IP

Amino acid sequences for entries named in this document (tags omitted). A change or cut given only in a name is not applied to a line headed by its entry.
UniProt Q2KN98: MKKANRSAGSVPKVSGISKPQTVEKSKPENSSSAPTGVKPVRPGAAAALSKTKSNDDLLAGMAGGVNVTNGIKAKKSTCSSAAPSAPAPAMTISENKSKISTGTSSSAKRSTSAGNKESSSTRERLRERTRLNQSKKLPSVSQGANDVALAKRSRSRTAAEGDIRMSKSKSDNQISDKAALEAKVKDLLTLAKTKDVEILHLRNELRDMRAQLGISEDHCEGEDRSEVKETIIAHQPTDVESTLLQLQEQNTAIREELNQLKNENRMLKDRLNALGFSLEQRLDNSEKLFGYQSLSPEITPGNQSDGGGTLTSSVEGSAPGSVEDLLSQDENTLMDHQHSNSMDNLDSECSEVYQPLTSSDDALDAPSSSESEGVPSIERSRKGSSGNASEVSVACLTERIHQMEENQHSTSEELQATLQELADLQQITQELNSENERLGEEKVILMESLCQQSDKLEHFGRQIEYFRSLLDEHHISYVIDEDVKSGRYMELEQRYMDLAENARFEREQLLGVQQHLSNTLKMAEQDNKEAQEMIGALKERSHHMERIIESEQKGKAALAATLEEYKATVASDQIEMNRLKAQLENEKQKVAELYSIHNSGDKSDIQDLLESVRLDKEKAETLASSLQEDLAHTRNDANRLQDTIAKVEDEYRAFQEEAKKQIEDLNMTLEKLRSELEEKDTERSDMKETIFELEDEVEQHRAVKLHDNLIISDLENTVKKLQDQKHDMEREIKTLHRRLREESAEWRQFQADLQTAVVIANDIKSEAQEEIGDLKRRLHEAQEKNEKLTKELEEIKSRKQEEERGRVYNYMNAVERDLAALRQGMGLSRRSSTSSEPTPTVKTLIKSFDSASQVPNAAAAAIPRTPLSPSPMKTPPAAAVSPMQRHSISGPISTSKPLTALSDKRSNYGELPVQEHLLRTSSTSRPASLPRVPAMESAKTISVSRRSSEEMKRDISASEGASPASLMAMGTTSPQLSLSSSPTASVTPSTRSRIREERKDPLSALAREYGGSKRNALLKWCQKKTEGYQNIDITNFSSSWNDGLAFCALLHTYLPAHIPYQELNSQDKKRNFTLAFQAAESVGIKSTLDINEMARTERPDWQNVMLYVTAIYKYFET
UniProt Q61879: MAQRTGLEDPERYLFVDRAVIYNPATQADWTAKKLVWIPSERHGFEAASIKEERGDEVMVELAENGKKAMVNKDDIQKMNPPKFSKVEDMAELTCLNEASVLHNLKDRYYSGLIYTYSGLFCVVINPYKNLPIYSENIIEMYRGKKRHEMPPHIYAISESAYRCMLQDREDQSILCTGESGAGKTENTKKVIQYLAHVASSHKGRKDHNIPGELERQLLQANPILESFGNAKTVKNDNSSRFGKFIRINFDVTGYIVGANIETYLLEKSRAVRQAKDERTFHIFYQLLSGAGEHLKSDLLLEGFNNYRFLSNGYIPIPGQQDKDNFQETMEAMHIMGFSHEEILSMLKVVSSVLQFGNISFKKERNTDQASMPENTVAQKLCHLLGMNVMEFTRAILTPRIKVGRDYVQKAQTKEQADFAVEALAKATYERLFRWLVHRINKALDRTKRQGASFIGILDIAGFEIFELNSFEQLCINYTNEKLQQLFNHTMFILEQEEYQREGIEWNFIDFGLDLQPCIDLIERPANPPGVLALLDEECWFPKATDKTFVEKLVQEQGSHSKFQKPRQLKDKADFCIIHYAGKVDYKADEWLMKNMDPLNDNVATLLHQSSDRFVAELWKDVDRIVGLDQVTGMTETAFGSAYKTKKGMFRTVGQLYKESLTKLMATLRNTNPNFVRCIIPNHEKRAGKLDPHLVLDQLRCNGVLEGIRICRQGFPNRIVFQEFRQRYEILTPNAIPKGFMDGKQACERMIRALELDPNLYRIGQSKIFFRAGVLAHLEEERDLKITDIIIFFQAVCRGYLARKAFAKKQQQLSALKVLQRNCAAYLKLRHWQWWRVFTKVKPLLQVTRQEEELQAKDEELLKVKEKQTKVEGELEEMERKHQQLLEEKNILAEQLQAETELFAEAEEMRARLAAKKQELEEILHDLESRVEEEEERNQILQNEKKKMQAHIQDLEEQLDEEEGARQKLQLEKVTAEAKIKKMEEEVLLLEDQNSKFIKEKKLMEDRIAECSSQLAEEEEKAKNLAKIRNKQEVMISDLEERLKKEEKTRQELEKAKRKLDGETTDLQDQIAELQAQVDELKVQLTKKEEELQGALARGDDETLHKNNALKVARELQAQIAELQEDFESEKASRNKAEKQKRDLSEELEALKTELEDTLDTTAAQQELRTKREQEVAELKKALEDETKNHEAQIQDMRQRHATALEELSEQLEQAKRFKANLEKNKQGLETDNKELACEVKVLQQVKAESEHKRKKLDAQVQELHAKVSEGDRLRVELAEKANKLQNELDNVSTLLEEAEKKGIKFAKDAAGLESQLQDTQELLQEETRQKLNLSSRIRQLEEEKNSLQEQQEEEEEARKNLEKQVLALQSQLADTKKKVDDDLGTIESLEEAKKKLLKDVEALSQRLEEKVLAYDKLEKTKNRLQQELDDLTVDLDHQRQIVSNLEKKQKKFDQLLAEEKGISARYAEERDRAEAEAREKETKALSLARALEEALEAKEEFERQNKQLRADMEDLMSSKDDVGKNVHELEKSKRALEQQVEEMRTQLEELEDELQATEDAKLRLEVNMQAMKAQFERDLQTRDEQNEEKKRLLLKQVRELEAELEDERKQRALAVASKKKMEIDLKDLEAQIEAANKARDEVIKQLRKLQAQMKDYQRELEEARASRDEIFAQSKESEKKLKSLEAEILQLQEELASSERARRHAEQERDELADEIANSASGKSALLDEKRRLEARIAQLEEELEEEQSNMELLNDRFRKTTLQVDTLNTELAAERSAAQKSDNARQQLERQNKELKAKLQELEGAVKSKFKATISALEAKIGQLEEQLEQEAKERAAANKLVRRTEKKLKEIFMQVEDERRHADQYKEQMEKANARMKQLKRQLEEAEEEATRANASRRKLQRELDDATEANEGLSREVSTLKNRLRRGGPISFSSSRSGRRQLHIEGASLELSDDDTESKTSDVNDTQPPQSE

non-muscle myosin IIB (NM-IIB) component MYH10 (from UniProt Q61879 1-1976)
binding: binds
